Experimental data from article PMC9723622.

Amino acid sequences for entries named in this document (tags omitted).
UniProt P09874: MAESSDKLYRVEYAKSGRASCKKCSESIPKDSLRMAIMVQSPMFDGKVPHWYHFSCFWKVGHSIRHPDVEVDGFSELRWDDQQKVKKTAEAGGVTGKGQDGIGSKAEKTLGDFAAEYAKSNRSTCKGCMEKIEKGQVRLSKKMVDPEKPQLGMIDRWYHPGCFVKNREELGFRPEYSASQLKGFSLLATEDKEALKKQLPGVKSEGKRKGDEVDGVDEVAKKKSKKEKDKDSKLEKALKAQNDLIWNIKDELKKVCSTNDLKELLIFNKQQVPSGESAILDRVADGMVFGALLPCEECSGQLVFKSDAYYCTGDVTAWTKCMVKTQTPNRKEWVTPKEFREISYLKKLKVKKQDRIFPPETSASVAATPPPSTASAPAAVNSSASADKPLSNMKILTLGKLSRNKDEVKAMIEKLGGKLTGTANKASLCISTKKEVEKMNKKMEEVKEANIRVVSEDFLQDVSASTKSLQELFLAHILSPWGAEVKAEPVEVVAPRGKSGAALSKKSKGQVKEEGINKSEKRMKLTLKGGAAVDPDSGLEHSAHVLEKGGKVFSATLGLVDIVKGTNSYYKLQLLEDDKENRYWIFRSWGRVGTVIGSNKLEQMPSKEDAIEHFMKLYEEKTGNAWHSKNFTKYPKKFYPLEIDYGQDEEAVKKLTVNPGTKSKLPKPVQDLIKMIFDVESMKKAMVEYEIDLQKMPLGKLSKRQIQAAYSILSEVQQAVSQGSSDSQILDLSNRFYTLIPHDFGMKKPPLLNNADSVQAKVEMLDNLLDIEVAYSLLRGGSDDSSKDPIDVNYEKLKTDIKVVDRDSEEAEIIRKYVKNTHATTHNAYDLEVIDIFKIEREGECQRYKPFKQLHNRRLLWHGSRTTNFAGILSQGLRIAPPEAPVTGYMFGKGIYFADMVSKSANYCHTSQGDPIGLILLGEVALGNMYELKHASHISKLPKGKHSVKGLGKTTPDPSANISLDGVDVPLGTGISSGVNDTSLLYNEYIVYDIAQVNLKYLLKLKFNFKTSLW

B1: AQR (protein, UniProt O60306 1-1485)
chain: MAAPAQPKKIVAPTVSQINAEFVTQLACKYWAPHIKKKSPFDIKVIEDIYEKEIVKSRFAIRKIMLLEFSQYLENYLWMNYSPEVSSKAYLMSICCMVNEKFRENVPAWEIFKKKPDHFPFFFKHILKAALAETDGEFSLHEQTVLLLFLDHCFNSLEVDLIRSQVQQLISLPMWMGLQLARLELELKKTPKLRKFWNLIKKNDEKMDPEAREQAYQERRFLSQLIQKFISVLKSVPLSEPVTMDKVHYCERFIELMIDLEALLPTRRWFNTILDDSHLLVHCYLSNLVRREEDGHLFSQLLDMLKFYTGFEINDQTGNALTENEMTTIHYDRITSLQRAAFAHFPELYDFALSNVAEVDTRESLVKFFGPLSSNTLHQVASYLCLLPTLPKNEDTTFDKEFLLELLVSRHERRISQIQQLNQMPLYPTEKIIWDENIVPTEYYSGEGCLALPKLNLQFLTLHDYLLRNFNLFRLESTYEIRQDIEDSVSRMKPWQSEYGGVVFGGWARMAQPIVAFTVVEVAKPNIGENWPTRVRADVTINLNVRDHIKDEWEGLRKHDVCFLITVRPTKPYGTKFDRRRPFIEQVGLVYVRGCEIQGMLDDKGRVIEDGPEPRPNLRGESRTFRVFLDPNQYQQDMTNTIQNGAEDVYETFNIIMRRKPKENNFKAVLETIRNLMNTDCVVPDWLHDIILGYGDPSSAHYSKMPNQIATLDFNDTFLSIEHLKASFPGHNVKVTVEDPALQIPPFRITFPVRSGKGKKRKDADVEDEDTEEAKTLIVEPHVIPNRGPYPYNQPKRNTIQFTHTQIEAIRAGMQPGLTMVVGPPGTGKTDVAVQIISNIYHNFPEQRTLIVTHSNQALNQLFEKIMALDIDERHLLRLGHGEEELETEKDFSRYGRVNYVLARRIELLEEVKRLQKSLGVPGDASYTCETAGYFFLYQVMSRWEEYISKVKNKGSTLPDVTEVSTFFPFHEYFANAPQPIFKGRSYEEDMEIAEGCFRHIKKIFTQLEEFRASELLRSGLDRSKYLLVKEAKIIAMTCTHAALKRHDLVKLGFKYDNILMEEAAQILEIETFIPLLLQNPQDGFSRLKRWIMIGDHHQLPPVIKNMAFQKYSNMEQSLFTRFVRVGVPTVDLDAQGRARASLCNLYNWRYKNLGNLPHVQLLPEFSTANAGLLYDFQLINVEDFQGVGESEPNPYFYQNLGEAEYVVALFMYMCLLGYPADKISILTTYNGQKHLIRDIINRRCGNNPLIGRPNKVTTVDRFQGQQNDYILLSLVRTRAVGHLRDVRRLVVAMSRARLGLYIFARVSLFQNCFELTPAFSQLTARPLHLHIIPTEPFPTTRKNGERPSHEVQIIKNMPQMANFVYNMYMHLIQTTHHYHQTLLQLPPAMVEEGEEVQNQETELETEEEAMTVQADIIPSPTDTSCRQETPAFQTDTTPSETGATSTPEAIPALSETTPTVVGAVSAPAEANTPQDATSAPEETK
B2: DIS3 (protein, UniProt Q9Y2L1 1-958)
chain: MLKSKTFLKKTRAGGVMKIVREHYLRDDIGCGAPGCAACGGAHEGPALEPQPQDPASSVCPQPHYLLPDTNVLLHQIDVLEDPAIRNVIVLQTVLQEVRNRSAPVYKRIRDVTNNQEKHFYTFTNEHHRETYVEQEQGENANDRNDRAIRVAAKWYNEHLKKMSADNQLQVIFITNDRRNKEKAIEEGIPAFTCEEYVKSLTANPELIDRLACLSEEGNEIESGKIIFSEHLPLSKLQQGIKSGTYLQGTFRASRENYLEATVWIHGDNEENKEIILQGLKHLNRAVHEDIVAVELLPKSQWVAPSSVVLHDEGQNEEDVEKEEETERMLKTAVSEKMLKPTGRVVGIIKRNWRPYCGMLSKSDIKESRRHLFTPADKRIPRIRIETRQASTLEGRRIIVAIDGWPRNSRYPNGHFVRNLGDVGEKETETEVLLLEHDVPHQPFSQAVLSFLPKMPWSITEKDMKNREDLRHLCICSVDPPGCTDIDDALHCRELENGNLEVGVHIADVSHFIRPGNALDQESARRGTTVYLCEKRIDMVPELLSSNLCSLKCDVDRLAFSCIWEMNHNAEILKTKFTKSVINSKASLTYAEAQLRIDSANMNDDITTSLRGLNKLAKILKKRRIEKGALTLSSPEVRFHMDSETHDPIDLQTKELRETNSMVEEFMLLANISVAKKIHEEFSEHALLRKHPAPPPSNYEILVKAARSRNLEIKTDTAKSLAESLDQAESPTFPYLNTLLRILATRCMMQAVYFCSGMDNDFHHYGLASPIYTHFTSPIRRYADVIVHRLLAVAIGADCTYPELTDKHKLADICKNLNFRHKMAQYAQRASVAFHTQLFFKSKGIVSEEAYILFVRKNAIVVLIPKYGLEGTVFFEEKDKPNPQLIYDDEIPSLKIEDTVFHVFDKVKVKIMLDSSNLQHQKIRMSLVEPQIPGISIPTDTSNMDLNGPKKKKMKLGK
B3: KIF2C (protein, UniProt Q99661 1-725)
chain: MAMDSSLQARLFPGLAIKIQRSNGLIHSANVRTVNLEKSCVSVEWAEGGATKGKEIDFDDVAAINPELLQLLPLHPKDNLPLQENVTIQKQKRRSVNSKIPAPKESLRSRSTRMSTVSELRITAQENDMEVELPAAANSRKQFSVPPAPTRPSCPAVAEIPLRMVSEEMEEQVHSIRGSSSANPVNSVRRKSCLVKEVEKMKNKREEKKAQNSEMRMKRAQEYDSSFPNWEFARMIKEFRATLECHPLTMTDPIEEHRICVCVRKRPLNKQELAKKEIDVISIPSKCLLLVHEPKLKVDLTKYLENQAFCFDFAFDETASNEVVYRFTARPLVQTIFEGGKATCFAYGQTGSGKTHTMGGDLSGKAQNASKGIYAMASRDVFLLKNQPCYRKLGLEVYVTFFEIYNGKLFDLLNKKAKLRVLEDGKQQVQVVGLQEHLVNSADDVIKMIDMGSACRTSGQTFANSNSSRSHACFQIILRAKGRMHGKFSLVDLAGNERGADTSSADRQTRMEGAEINKSLLALKECIRALGQNKAHTPFRESKLTQVLRDSFIGENSRTCMIATISPGISSCEYTLNTLRYADRVKELSPHSGPSGEQLIQMETEEMEACSNGALIPGNLSKEEEELSSQMSSFNEAMTQIRELEEKAMEELKEIIQQGPDWLELSEMTEQPDYDLETFVNKAESALAQQAKHFSALRDVIKALRLAMQLEEQASRQISSKKRPQ
B4: KIF23 (protein, UniProt Q02241 1-960)
chain: MKSARAKTPRKPTVKKGSQTNLKDPVGVYCRVRPLGFPDQECCIEVINNTTVQLHTPEGYRLNRNGDYKETQYSFKQVFGTHTTQKELFDVVANPLVNDLIHGKNGLLFTYGVTGSGKTHTMTGSPGEGGLLPRCLDMIFNSIGSFQAKRYVFKSNDRNSMDIQCEVDALLERQKREAMPNPKTSSSKRQVDPEFADMITVQEFCKAEEVDEDSVYGVFVSYIEIYNNYIYDLLEEVPFDPIKPKPPQSKLLREDKNHNMYVAGCTEVEVKSTEEAFEVFWRGQKKRRIANTHLNRESSRSHSVFNIKLVQAPLDADGDNVLQEKEQITISQLSLVDLAGSERTNRTRAEGNRLREAGNINQSLMTLRTCMDVLRENQMYGTNKMVPYRDSKLTHLFKNYFDGEGKVRMIVCVNPKAEDYEENLQVMRFAEVTQEVEVARPVDKAICGLTPGRRYRNQPRGPVGNEPLVTDVVLQSFPPLPSCEILDINDEQTLPRLIEALEKRHNLRQMMIDEFNKQSNAFKALLQEFDNAVLSKENHMQGKLNEKEKMISGQKLEIERLEKKNKTLEYKIEILEKTTTIYEEDKRNLQQELETQNQKLQRQFSDKRRLEARLQGMVTETTMKWEKECERRVAAKQLEMQNKLWVKDEKLKQLKAIVTEPKTEKPERPSRERDREKVTQRSVSPSPVPLSSNYIAQISNGQQLMSQPQLHRRSNSCSSISVASCISEWEQKIPTYNTPLKVTSIARRRQQEPGQSKTCIVSDRRRGMYWTEGREVVPTFRNEIEIEEDHCGRLLFQPDQNAPPIRLRHRRSRSAGDRWVDHKPASNMQTETVMQPHVPHAITVSVANEKALAKCEKYMLTHQELASDGEIETKLIKGDIYKTRGGGQSVQFTDIETLKQESPNGSRKRRSSTVAPAQPDGAESEWTDVETRCSVAVEMRAGSQLGPGYQHHAQPKRKKP
B5: THRAP3 (protein, UniProt Q9Y2W1 1-955)
chain: MSKTNKSKSGSRSSRSRSASRSRSRSFSKSRSRSRSLSRSRKRRLSSRSRSRSYSPAHNRERNHPRVYQNRDFRGHNRGYRRPYYFRGRNRGFYPWGQYNRGGYGNYRSNWQNYRQAYSPRRGRSRSRSPKRRSPSPRSRSHSRNSDKSSSDRSRRSSSSRSSSNHSRVESSKRKSAKEKKSSSKDSRPSQAAGDNQGDEAKEQTFSGGTSQDTKASESSKPWPDATYGTGSASRASAVSELSPRERSPALKSPLQSVVVRRRSPRPSPVPKPSPPLSSTSQMGSTLPSGAGYQSGTHQGQFDHGSGSLSPSKKSPVGKSPPSTGSTYGSSQKEESAASGGAAYTKRYLEEQKTENGKDKEQKQTNTDKEKIKEKGSFSDTGLGDGKMKSDSFAPKTDSEKPFRGSQSPKRYKLRDDFEKKMADFHKEEMDDQDKDKAKGRKESEFDDEPKFMSKVIGANKNQEEEKSGKWEGLVYAPPGKEKQRKTEELEEESFPERSKKEDRGKRSEGGHRGFVPEKNFRVTAYKAVQEKSSSPPPRKTSESRDKLGAKGDFPTGKSSFSITREAQVNVRMDSFDEDLARPSGLLAQERKLCRDLVHSNKKEQEFRSIFQHIQSAQSQRSPSELFAQHIVTIVHHVKEHHFGSSGMTLHERFTKYLKRGTEQEAAKNKKSPEIHRRIDISPSTFRKHGLAHDEMKSPREPGYKAEGKYKDDPVDLRLDIERRKKHKERDLKRGKSRESVDSRDSSHSRERSAEKTEKTHKGSKKQKKHRRARDRSRSSSSSSQSSHSYKAEEYTEETEEREESTTGFDKSRLGTKDFVGPSERGGGRARGTFQFRARGRGWGRGNYSGNNNNNSNNDFQKRNREEEWDPEYTPKSKKYYLHDDREGEGSDKWVSRGRGRGAFPRGRGRFMFRKSSTSPKWAHDKFSGEEGEIEDDESGTENREEKDNIQPTTE
B6: KIF22 (protein, UniProt Q14807 1-665)
chain: MAAGGSTQQRRREMAAASAAAISGAGRCRLSKIGATRRPPPARVRVAVRLRPFVDGTAGASDPPCVRGMDSCSLEIANWRNHQETLKYQFDAFYGERSTQQDIYAGSVQPILRHLLEGQNASVLAYGPTGAGKTHTMLGSPEQPGVIPRALMDLLQLTREEGAEGRPWALSVTMSYLEIYQEKVLDLLDPASGDLVIREDCRGNILIPGLSQKPISSFADFERHFLPASRNRTVGATRLNQRSSRSHAVLLVKVDQRERLAPFRQREGKLYLIDLAGSEDNRRTGNKGLRLKESGAINTSLFVLGKVVDALNQGLPRVPYRDSKLTRLLQDSLGGSAHSILIANIAPERRFYLDTVSALNFAARSKEVINRPFTNESLQPHALGPVKLSQKELLGPPEAKRARGPEEEEIGSPEPMAAPASASQKLSPLQKLSSMDPAMLERLLSLDRLLASQGSQGAPLLSTPKRERMVLMKTVEEKDLEIERLKTKQKELEAKMLAQKAEEKENHCPTMLRPLSHRTVTGAKPLKKAVVMPLQLIQEQAASPNAEIHILKNKGRKRKLESLDALEPEEKAEDCWELQISPELLAHGRQKILDLLNEGSARDLRSLQRIGPKKAQLIVGWRELHGPFSQVEDLERVEGITGKQMESFLKANILGLAAGQRCGAS

Target: full-length PARP1 tagged on the N-terminus with APEX2 (expressed in U2OS cells) (human) (UniProt P09874)
Experiment: proximity labelling; APEX2-PARP1 in SILAC-labelled U2OS cells; 500 uM biotin phenol 2 h, 1 mM H2O2 2 min, against no H2O2; nuclear extract, NeutrAvidin pull-down, LC-MS/MS; FDR < 1%

Binder	binding
B1	binds
B2	binds
B3	binds
B4	binds
B5	binds
B6	binds

These are yes or no findings as the source states them, for the method shown. Binding seen in cells or lysates may run through a third protein. These calls come from enrichment with a bait or labelling near it, and not all partners need be listed.
